Results are given in words; binding and its absence hold for the method and conditions named. In cells and extracts the contact can be indirect. Some binding calls cover weakened binding; strength is not graded here.
The substances below were run against GST-RXRα (UniProt P19793) (assay: pull-down; GST fusion proteins from E. coli loaded on glutathione sepharose beads; 35S-methionine-labelled in vitro transcription/translation products; bound products eluted by boiling, SDS-PAGE, autoradiography; beads with non-fused GST as control; only the target purified).

Protein sequences, listed by entry. Tags and fused reporters are not part of them. Lines headed by an entry give the natural chain unless they say otherwise; changes in a name come on top.
UniProt P19793: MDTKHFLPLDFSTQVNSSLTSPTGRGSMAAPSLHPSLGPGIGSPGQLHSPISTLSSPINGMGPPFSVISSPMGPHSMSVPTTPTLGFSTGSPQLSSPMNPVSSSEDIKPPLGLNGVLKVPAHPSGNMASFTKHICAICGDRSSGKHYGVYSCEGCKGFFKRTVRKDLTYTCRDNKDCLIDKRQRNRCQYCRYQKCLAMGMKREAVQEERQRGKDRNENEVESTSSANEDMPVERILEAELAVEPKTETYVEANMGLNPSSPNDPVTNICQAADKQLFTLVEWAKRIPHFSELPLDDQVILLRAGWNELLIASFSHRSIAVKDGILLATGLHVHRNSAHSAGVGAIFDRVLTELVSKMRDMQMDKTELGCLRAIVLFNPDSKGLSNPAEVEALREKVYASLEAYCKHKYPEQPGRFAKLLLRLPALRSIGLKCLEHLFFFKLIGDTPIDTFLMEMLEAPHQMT
UniProt P41212: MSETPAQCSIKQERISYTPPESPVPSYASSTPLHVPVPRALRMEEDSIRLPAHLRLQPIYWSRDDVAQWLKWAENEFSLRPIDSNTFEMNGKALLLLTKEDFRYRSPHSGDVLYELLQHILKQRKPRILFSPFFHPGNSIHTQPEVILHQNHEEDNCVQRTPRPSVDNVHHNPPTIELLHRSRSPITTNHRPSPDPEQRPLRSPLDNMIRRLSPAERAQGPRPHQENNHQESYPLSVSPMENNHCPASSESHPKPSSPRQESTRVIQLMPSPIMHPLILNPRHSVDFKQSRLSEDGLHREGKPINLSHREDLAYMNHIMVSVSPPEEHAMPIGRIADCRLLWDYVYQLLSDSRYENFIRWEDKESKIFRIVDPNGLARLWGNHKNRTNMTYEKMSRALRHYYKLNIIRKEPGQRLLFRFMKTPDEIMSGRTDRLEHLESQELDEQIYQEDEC
UniProt Q15596: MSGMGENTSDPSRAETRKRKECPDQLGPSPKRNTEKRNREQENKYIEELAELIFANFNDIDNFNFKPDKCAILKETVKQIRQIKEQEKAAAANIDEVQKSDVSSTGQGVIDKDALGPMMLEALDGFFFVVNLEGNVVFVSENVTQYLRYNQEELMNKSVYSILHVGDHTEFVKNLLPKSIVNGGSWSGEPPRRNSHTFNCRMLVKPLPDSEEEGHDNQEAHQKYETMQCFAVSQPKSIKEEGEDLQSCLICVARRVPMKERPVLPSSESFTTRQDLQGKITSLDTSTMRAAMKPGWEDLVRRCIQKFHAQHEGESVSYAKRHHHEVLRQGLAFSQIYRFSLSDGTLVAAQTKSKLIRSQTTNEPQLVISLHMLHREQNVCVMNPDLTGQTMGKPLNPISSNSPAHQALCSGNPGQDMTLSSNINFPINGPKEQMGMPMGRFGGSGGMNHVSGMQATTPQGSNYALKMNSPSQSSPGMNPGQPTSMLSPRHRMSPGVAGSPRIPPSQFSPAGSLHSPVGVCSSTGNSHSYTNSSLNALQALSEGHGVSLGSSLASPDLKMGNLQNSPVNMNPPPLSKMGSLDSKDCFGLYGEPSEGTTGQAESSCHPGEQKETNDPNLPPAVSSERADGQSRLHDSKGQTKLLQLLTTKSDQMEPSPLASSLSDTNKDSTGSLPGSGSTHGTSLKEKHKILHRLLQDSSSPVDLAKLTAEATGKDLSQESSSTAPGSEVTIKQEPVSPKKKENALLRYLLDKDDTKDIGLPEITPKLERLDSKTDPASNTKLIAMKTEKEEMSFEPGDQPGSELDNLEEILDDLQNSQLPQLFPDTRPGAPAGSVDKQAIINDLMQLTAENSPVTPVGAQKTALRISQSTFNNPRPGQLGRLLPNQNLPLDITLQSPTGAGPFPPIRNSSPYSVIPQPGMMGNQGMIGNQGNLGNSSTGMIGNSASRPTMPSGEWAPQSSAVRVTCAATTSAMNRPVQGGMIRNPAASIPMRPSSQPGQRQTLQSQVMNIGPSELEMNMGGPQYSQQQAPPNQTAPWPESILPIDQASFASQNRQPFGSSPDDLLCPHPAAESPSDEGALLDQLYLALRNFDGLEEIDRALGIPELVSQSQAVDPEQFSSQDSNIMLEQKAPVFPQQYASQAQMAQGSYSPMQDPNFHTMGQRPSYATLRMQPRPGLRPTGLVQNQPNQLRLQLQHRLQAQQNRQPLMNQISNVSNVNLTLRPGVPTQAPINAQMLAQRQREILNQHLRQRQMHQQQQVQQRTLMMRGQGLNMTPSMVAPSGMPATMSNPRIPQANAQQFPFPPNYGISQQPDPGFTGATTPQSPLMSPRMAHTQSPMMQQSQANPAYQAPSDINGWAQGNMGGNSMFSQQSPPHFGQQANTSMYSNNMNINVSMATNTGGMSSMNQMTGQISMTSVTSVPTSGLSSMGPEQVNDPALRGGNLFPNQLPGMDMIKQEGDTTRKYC

Substance | binding
TEL (ETV6), shorter isoform starting at methionine 43 (from UniProt P41212 43-452) | binds
TEL (ETV6), larger isoform starting at methionine 1 (from UniProt P41212 1-452) | binds
TIF2 (from UniProt Q15596 1-1464) | no binding

Reference: paper PMC3174942
